These are yes or no findings as the source states them, for the method shown. Binding seen in cells or lysates may run through a third protein. Some results given as binding are weak or reduced against the parent protein; the word gives no strength. Sequences can lack the tags named with a protein.
Biological target: T1, PSMA4-GFP (20S proteasomal subunit PSMA4 with GFP fused C-terminally) (D. discoideum) (UniProt P34119)
T1 sequence: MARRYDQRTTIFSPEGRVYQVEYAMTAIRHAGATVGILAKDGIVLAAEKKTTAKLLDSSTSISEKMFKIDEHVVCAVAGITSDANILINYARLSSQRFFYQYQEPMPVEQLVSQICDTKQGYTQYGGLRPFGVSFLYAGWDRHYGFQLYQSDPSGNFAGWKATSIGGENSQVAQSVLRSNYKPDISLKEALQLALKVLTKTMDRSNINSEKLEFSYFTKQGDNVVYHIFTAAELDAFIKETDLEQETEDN
Test: co-IP; GFP-trap beads, 2 h at 4 °C, with the soluble supernatant of lysates (20 mM Tris/HCl pH 7.5, 100 mM NaCl, 1 mM DTT, 20 mM MgCl2, 5% glycerol) of AX2 and ATG16- cells expressing RFP-PSMD1 and PSMA4-GFP; cells without PSMA4-GFP as negative controls; bound proteins by SDS-PAGE with silver staining or Western blot (anti-GFP, anti-PSMA4)

B1: endogenous PSMA4 (protein, UniProt P34119 1-250)
chain: MARRYDQRTTIFSPEGRVYQVEYAMTAIRHAGATVGILAKDGIVLAAEKKTTAKLLDSSTSISEKMFKIDEHVVCAVAGITSDANILINYARLSSQRFFYQYQEPMPVEQLVSQICDTKQGYTQYGGLRPFGVSFLYAGWDRHYGFQLYQSDPSGNFAGWKATSIGGENSQVAQSVLRSNYKPDISLKEALQLALKVLTKTMDRSNINSEKLEFSYFTKQGDNVVYHIFTAAELDAFIKETDLEQETEDN
binding: binds

— publication PMC10252828
